Results taken from article PMC5608764.
For at least one entry, the source does not settle the construct or the ends of the probe. At least one verdict rests on a figure or table, not on a statement of the authors.

Amino acid sequences for entries named in this document (tags omitted). Residues count along the entry.
UniProt P09651, 1-97: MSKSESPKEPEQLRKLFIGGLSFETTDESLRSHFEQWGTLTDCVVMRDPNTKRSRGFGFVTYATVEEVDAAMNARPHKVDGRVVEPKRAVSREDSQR

Biological target: hnRNP A1 RRM1 (UniProt P09651)
Assay: NMR (3J couplings of complex)
Details: 20 mM K phosphate pH 5.8, 10 mM NaCl, 0.1% beta-mercaptoethanol, 25 C (NMR titrations and ITC); hnRNP A1: 10 mM Na phosphate pH 6.5, 10 mM beta-mercaptoethanol; recombinant protein; protein details: His-tag (pET28a, Ni affinity)

Sequence: UUAGGCU
- binding result: binds
